This note sets out measurements from paper PMC5419085.

This assay has as its target full-length human LRP1 (low-density lipoprotein receptor-related protein 1) (human). Kind of assay: ELISA; full-length human LRP1 (5 nM) coated on microtiter plates; various concentrations of FLAG-tagged ADAMTS-5-2, ADAMTS-4 lacking spacer domain or TIMP-3 with or without 1B7 or RAP (each 100 nM); detected by anti-FLAG M2 and HRP-conjugated secondary antibody; TNC buffer, 2 h, room temperature; both purified. Background: An ELISA detects its analyte on a solid surface through an enzyme-linked reagent.

These are yes or no findings as the source states them, for the method shown. Binding can be weak; no strength is given.

B1: tissue inhibitor of metalloproteinases 3 (TIMP-3) (protein, UniProt P35625 24-211)
chain: CTCSPSHPQDAFCNSDIVIRAKVVGKKLVKEGPFGTLVYTIKQMKMYRGFTKMPHVQYIHTEASESLCGLKLEVNKYQYLLTGRVYDGKMYTGLCNFVERWDQLTLSQRKGLNYRYHLGCNCKIKSCYYLPCFVTSKNECLWTDMLSNFGYPGYQSKHYACIRQKGGYCSWYRGWAPPDKSIINATDP
Consider B1, for which the binding result is on record as “binds”.
